PubChem BioAssay AID540275 (National Center for Advancing Translational Sciences (NCATS), 2011)
Out of some 320,000 compounds screened, about 620 (0.19%) were called active. Inconclusive means that the source gave no clear call. Such entries were picked first, then a sample of the others. Cut-off read from the data, not from the text of the source: active = activation above about 80%; inconclusive = between about 30% and that limit; inactive = weaker than that.

Protein sequences, listed by entry. Tags and fused reporters are not part of them.
UniProt Q8NER1, whole entry, looked up: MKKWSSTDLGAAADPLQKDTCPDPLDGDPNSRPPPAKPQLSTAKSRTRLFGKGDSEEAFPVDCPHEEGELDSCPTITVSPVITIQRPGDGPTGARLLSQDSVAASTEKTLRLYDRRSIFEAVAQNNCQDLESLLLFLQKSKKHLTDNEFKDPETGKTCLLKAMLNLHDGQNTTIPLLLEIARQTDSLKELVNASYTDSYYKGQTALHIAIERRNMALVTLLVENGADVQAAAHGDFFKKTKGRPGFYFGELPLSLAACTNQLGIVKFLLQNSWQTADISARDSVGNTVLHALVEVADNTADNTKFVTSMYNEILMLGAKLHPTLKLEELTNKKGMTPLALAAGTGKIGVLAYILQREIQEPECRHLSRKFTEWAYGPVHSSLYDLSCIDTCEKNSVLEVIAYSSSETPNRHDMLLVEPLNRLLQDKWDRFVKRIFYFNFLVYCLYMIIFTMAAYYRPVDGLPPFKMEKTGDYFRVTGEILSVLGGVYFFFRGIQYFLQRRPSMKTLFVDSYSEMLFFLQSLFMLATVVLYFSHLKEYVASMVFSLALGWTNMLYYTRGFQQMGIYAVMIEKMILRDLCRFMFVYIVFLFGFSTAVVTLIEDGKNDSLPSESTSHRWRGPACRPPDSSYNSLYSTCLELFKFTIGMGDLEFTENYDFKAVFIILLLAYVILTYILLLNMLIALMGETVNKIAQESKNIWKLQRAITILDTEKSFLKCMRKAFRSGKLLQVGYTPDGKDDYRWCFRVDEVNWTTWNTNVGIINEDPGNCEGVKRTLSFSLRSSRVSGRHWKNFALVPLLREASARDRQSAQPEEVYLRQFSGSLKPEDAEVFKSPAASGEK

Target: Transient receptor potential cation channel subfamily V member 1 (Homo sapiens) (UniProt Q8NER1)
Experiment: HTS Assay for Compounds that Act as Agonists of the Vanilloid Receptor 1; note: 0% is about no effect
Details: TRPV1-expressing cells, Fluo-8 calcium influx, agonist mode; at 8.33 µM, active compounds read high
Outline: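 Fluo-8 calcium influx in TRPV1-expressing cells, kinetic read (ex 480/em 520 nm). Compound added and read 3 min for agonist activity, followed by capsaicin at EC20 final and 2 min further read for enhancement.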

Structure (SMILES) | activation
CCOc1ccc(C(=O)Nc2ncn[nH]2)cc1 | inactive: -3.13%
COc1ccc(-c2csc(Nc3cc(C)ccn3)n2)cc1C | inconclusive: 30.2%
O=C(CSc1ccc(-c2ccc(F)cc2)nn1)Nc1ccc2c(c1)OCCO2 | inconclusive: 48%
Cc1ccc(S(=O)(=O)NCc2ccccc2)cc1C(=O)N(C)Cc1ccccc1F | inactive: 11.5%
Cc1cccc(C)c1OCCNC(=O)c1ccc2ccccc2n1 | inconclusive: 61.1%
NC(=O)c1ccsc1NC(=O)COC(=O)Cc1cccc2ccccc12 | inconclusive: 38.6%
CN(C)c1nc(N2CCOCC2)nc(N(c2ccccc2)c2ccccc2)n1 | inconclusive: 39.8%
COc1cc(OC)c(OC)cc1CN1CCN(Cc2ccco2)CC1 | inactive: -1.48%
CC(C)(C)C(=O)Nc1cccc(OC(F)(F)C(F)Cl)c1 (configuration not stated) | inconclusive: 48.4%
COc1ccc(C(C)(C)C)cc1NC(=O)c1[nH]c(C)c(C(C)=O)c1C | inconclusive: 72%
CCCC1=C(C(=O)OCC)C(c2cccs2)C(C#N)=C(N)O1 (configuration not stated) | inconclusive: 46.3%
Cc1ccc(N2CC(=O)N(NC(=O)c3sc4nc(C)cc(C)c4c3N)CC2=O)cc1 | inactive: -3.49%
CCN(Cc1cnn(C)c1)Cc1nc(C2(c3ccc(C)cc3)CCCC2)no1 | inconclusive: 40.9%
Cc1c(C(=O)NC2CCC(C)CC2)oc2ccccc12 (configuration not stated) | inconclusive: 48.9%
C=CCC1NCCc2c(Br)cccc21 (configuration not stated) | inactive: -1.52%
O=C(CSc1nc2cccnc2n1Cc1ccccc1)N1CCCC1 | inconclusive: 48.3%
C#CCOCCOCCOCCNc1nc(N2CCN(C(=O)[C@H]([C@@H](C)CC)n3cc([C@@H](N)CC(C)C)nn3)CC2)nc(N2CCN(C(=O)[C@H](CCCCN)n3cc([C@@H](N)C(C)CC)nn3)CC2)n1 (some centres not stated) | inactive: -2.18%
Cc1ccc(NC(=O)CSc2nccn2C)cc1F | inconclusive: 73.8%
O=C(CC(Nc1ccccc1Cl)C(=O)O)c1ccccc1 (configuration not stated) | inactive: -3.75%
CC(=O)Nc1nonc1NC(=O)CSC1=NCCS1 | inactive: 0.783%
Cc1ccc(C(=O)N/N=C\c2ccncc2)s1 | inconclusive: 46.2%
Cc1ccc(N2CC(C(=O)N3CCC(C(=O)Nc4cccc(Br)c4)CC3)CC2=O)cc1 (configuration not stated) | inconclusive: 77.4%
CC1CC(C)CN(S(=O)(=O)c2cccc(C(=O)N3CCN(c4ccc(F)cc4)CC3)c2)C1 (configuration not stated) | inactive: 19%

Part of the list above, as tab-separated lines:
Structure (SMILES)	activation
Cc1ccc(N2CC(C(=O)N3CCC(C(=O)Nc4cccc(Br)c4)CC3)CC2=O)cc1 (configuration not stated)	inconclusive: 77.4%
CC1CC(C)CN(S(=O)(=O)c2cccc(C(=O)N3CCN(c4ccc(F)cc4)CC3)c2)C1 (configuration not stated)	inactive: 19%

Continued:

Structure (SMILES) | activation
Cc1c(NC(=O)c2cc3c(s2)-c2ccccc2OC3)cccc1[N+](=O)[O-] | inconclusive: 48%
Cc1ccc(Nc2nc3ccccc3[nH]2)nc1 | inactive: -0.842%
Cc1cccc(C)c1NC(=O)c1c[nH]c2ccccc12 | inactive: 18.4%
NC(=O)c1ccccc1NC(=O)/C=C/c1ccccc1 | inconclusive: 50.1%
N#Cc1c(NC(=O)C2CCCO2)sc2c1CCCCC2 (configuration not stated) | inconclusive: 30.5%
CCCn1nc(NC(=O)c2cccs2)c2cc3ccccc3nc21 | inconclusive: 54.1%
Cc1ccc(/C=C/C(=O)O)cc1S(=O)(=O)NCc1ccco1 | inactive: -2.53%
COc1ccccc1N1C(=O)CC(Sc2n[nH]c(-c3cccc(C)c3)n2)C1=O (configuration not stated) | inactive: 2.44%
COc1cc(NC(=O)CSc2nc3[nH]ncc3c(=O)n2-c2ccccc2C)cc(OC)c1OC | inactive: -0.0795%
Cc1ccc(CNC(=S)Nc2cc(C)ccc2OC(F)F)cc1 | inconclusive: 45.3%
COc1ccc([C@H]2CC(=O)C=C(c3cc(C=O)ccc3OC)C2)cc1 | inconclusive: 37.9%
COc1ccc(Cn2nnnc2C(c2ccc(C)cc2)N2CCN(C3CCCC3)CC2)cc1 (configuration not stated) | inactive: -0.334%
CC(CC(=O)NC1CCCC1)c1ccccc1 (configuration not stated) | inactive: 2.03%
CCCCC#Cc1cncc(C(=O)N/N=C/c2cccc(OC)c2)c1 | inactive: 0.827%
CCOc1ccc(-n2c(SCc3cc(=O)oc4cc(C)ccc34)nnc2-c2cccnc2)cc1 | inactive: 6.74%
COCCCN(C(=S)Nc1cc(C)cc(C)c1)C(C)c1ccncc1 (configuration not stated) | inactive: -1.81%
CS(=O)(=O)Nc1ccc(C(=O)NCCC2=CCCCC2)cc1 | inconclusive: 61.2%
CC(C)Cc1ccc(C(C)C(=O)Nc2cccnc2)cc1 (configuration not stated) | inconclusive: 34.1%
Cc1cccc(NC(=O)c2ccc(OCc3c(C)noc3C)cc2)n1 | inconclusive: 34.4%
CC(C)c1ccc(NC2CCCN(C(=O)c3ccccc3-c3ncc[nH]3)C2)cc1 (configuration not stated) | inconclusive: 76.6%
CC(C)Cn1cc(C(=O)N2CCC(C)CC2)c2c3ccccc3n(C)c2c1=O | inconclusive: 46.1%
Cn1c(/C(C#N)=C(\O)c2ccc(S(=O)(=O)N3CCCCC3)cc2)nc2ccccc21 | inactive: -1.99%
CC(=O)c1cccc(NC(=S)NCCC2=CCCCC2)c1 | inconclusive: 72.2%

Structure (SMILES) | activation
O=C(Nc1ccccc1)Nc1nc(-c2ccccc2)cs1 | inconclusive: 78.9%
Cc1ccccc1OCc1nc2ccccc2[nH]1 | inconclusive: 41.9%
CC(C)(C)OC(=O)[C@H](Cc1ccccc1)NC(=O)c1nc[nH]c1C(=O)NCc1ccccc1 | inconclusive: 41.8%
CC(C)(C)C1CCc2onc(C(=O)N3CCOCC3)c2C1 (configuration not stated) | inconclusive: 62.5%
Cc1ccc2c(c1)c1ncnc(N3CCOCC3)c1n2C | inactive: 10.3%
C/C(=N\Nc1ccc2nncn2n1)c1ccc(Cl)s1 | active: 115%
CCCc1cc(N2CCC(C(N)=O)CC2)nc(-c2ccccc2)n1 | inconclusive: 34.6%
CC1=CCC(COC(=O)Nc2ccccc2)CC1 (configuration not stated) | inconclusive: 77.1%
O=C(/C=C/c1cccc([N+](=O)[O-])c1)N1CCN(Cc2ccccc2)CC1 | inconclusive: 30.2%
COC(=O)c1cc(OC)c(OC)cc1NC(=O)c1ccc(C)o1 | inactive: 1.03%
Cc1ccc(C(=O)N/C(=C/c2ccc(Cl)cc2)C(=O)NCC2CCCO2)cc1 (configuration not stated) | inconclusive: 33.2%
CCn1c(CNC(=O)c2ccc(F)cc2)cc2ccccc21 | inconclusive: 58.3%
Cc1ccc(OCC(=O)N2CCc3ccccc3C2)cc1 | inconclusive: 34.5%
O=c1c2cnn(-c3ccc(F)cc3)c2ncn1Cc1cccnc1 | inconclusive: 38.5%
COc1ccc(CC(=O)Nc2ccc(N3CCCCC3)cc2)cc1 | inconclusive: 36.6%
CCN(CC)C(=O)c1cc2sc3ccccc3c2s1 | inconclusive: 47.2%
Cc1ccc(C)c(N2CCN(C(=O)CC3Sc4ccccc4NC3=O)CC2)c1 (configuration not stated) | inconclusive: 35.4%
Cc1c(C)c2c(OCC(=O)NCc3ccccn3)cc3c(c2oc1=O)CCC(C)(C)O3 | inconclusive: 31%
O=C(CSc1nc2ccccc2n1CCc1ccccc1)c1ccc(O)c(O)c1 | inconclusive: 54.3%
Cc1cc(C)n(-c2ccc(C(=O)Nc3cc(S(=O)(=O)N(C)C)ccc3Cl)cc2)n1 | inactive: -5.62%
CCN(c1ccc(NC(=O)c2ccc(Cl)nc2)cc1)C(C)C | active: 84.3%
Cc1cccc(C(=O)Nc2ccc3ccccc3c2)c1 | inconclusive: 56.9%
COc1ccc(C)cc1N(CC(=O)Nc1cccnc1)S(=O)(=O)c1ccccc1 | inconclusive: 30.8%

Structure (SMILES) | activation
Cc1ccc(C(C)C)cc1OCC(=O)Nc1ccc(-n2cnnn2)cc1 | inconclusive: 41%
O=C(CCCN1C(=O)/C(=C\c2ccccc2)SC1=S)Nc1ccc(O)cc1 | inconclusive: 31.5%
CC(C)(C)c1ccc(-c2nnc(SCC(=O)NC3CC3)o2)cc1 | inconclusive: 67.7%
Cn1c(=O)c(NC2CCCCC2)c2c3c(cccc31)C(=O)c1ccccc1-2 | active: 89%
COc1ccc(CNC(=O)N2CCN(c3ccc(F)cc3)CC2)cc1 | inconclusive: 65.2%
Cc1cc(-c2ccc(C(C)C)c(S(=O)(=O)N3CCC(C)CC3)c2)on1 | inconclusive: 40.3%
COc1cc(NCc2ccccc2)c2ncn(C(C)C)c2c1 | inconclusive: 49.3%
Cc1ccc(NC(=O)NCCSc2ccc(C)cc2)cc1 | inconclusive: 62.3%
O=C1/C(=C/c2ccc([N+](=O)[O-])cc2)Oc2cc(O)ccc21 | inactive: 2.26%
CCOC(=O)c1c(-c2ccccc2)nc2ccc(C)cn12 | inconclusive: 30.6%
O=C(Nc1ncc(Cc2ccccc2Cl)s1)C1CCCO1 (configuration not stated) | inconclusive: 43.1%
CCCCn1nnnc1SCC(=O)N1CCN(C(=O)c2ccco2)CC1 | inactive: -0.247%
Cc1c(C(=O)Nc2ccccn2)oc2ccc(Br)cc12 | inconclusive: 58.5%
CSc1ccc(/C=C/c2cc(=O)c3ccccc3[nH]2)cc1 | inconclusive: 33.2%
CCOC(=O)CN1C(c2ccccc2O)Nc2ccc(Br)cc2C1c1ccccc1 (configuration not stated) | inconclusive: 39.2%
O=C(NCC1CCCO1)c1cc2c([nH]c3ccccc32)c(-c2cccc(Cl)c2)n1 (configuration not stated) | inconclusive: 50.9%
COc1cccc(N2CCN(c3nc(C)cc(=O)[nH]3)CC2)c1 | active: 96.9%
CCOc1ccc(-c2nnc(NC(=O)C3CCCC3)o2)cc1 | inactive: 1.48%
COc1ccc(CN2CCN(C(=O)CCC(=O)Nc3nnc(C(F)(F)F)s3)CC2)cc1F | inactive: 17.6%
COc1cccc(NC(=O)CN(C)C(=O)CCSc2ccc(C)cc2)c1 | inconclusive: 48.2%
N=c1sccn1CC(=O)NCCc1ccc(Cl)cc1Cl | inactive: 1.43%
C=CCn1c(COc2ccccc2)nc2ccccc21 | inconclusive: 45%
CC(=O)NC12CC3CC(C1)CC(C(=O)OCC(=O)Nc1ncc(Cl)c(C)c1Cl)(C3)C2 | inconclusive: 45.2%

A different layout for three compounds above:
O=C(NCC1CCCO1)c1cc2c([nH]c3ccccc32)c(-c2cccc(Cl)c2)n1 (configuration not stated)
  activation: inconclusive: 50.9%
COc1cccc(N2CCN(c3nc(C)cc(=O)[nH]3)CC2)c1
  activation: active: 96.9%
CCOc1ccc(-c2nnc(NC(=O)C3CCCC3)o2)cc1
  activation: inactive: 1.48%
